Values from PubChem BioAssay AID652243 (Drosophila RNAi Screening Center, 2013)
In all, the deposit lists about 24,000 reagents; below is an unselected part of those with a known target gene and a result. Over the whole deposit, 246 (1%) got an active call. 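Plates not normalised; calls are printed but the firefly/Renilla ratio behind them is not deposited; fold cut for lowering reported inconsistently.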 The raw values are shown without normalisation. Reagents against one gene are numbered here. No sequences are given here. Not given: the amount of reagent.

Purpose: 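Fly regulators of androgen-dependent reporter output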 (primary screen)
Cell system: Drosophila S2R+ cells
Reagents: long dsRNA against Drosophila genes
Duration: 72 h (48 h, then 24 h hormone)
Challenge: synthetic androgen R1881 at 10 nM for 24 h
Measurement: 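Firefly light from an androgen-responsive reporter and Renilla control light per well, raw and unnormalised, for each of two replicates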
Scale: firefly reporter light: higher = more light from androgen-responsive reporter; Renilla control light: higher = more constitutive control signal (cell number, transfection)
Call rule: 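Across duplicate plates, a knock-down whose log firefly/Renilla ratio shifted a set fold down or up from the GFP/LacZ control mean was a hit; the downward cut appears as both 1.5 and 3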
Calls: active = hit: reporter lowered or raised; inactive = no hit

target	reagent	firefly reporter light, replicate 1	firefly reporter light, replicate 2	Renilla control light, replicate 1	Renilla control light, replicate 2	activity call
CG32483 (GeneID 318050)	1	1.79e5	1.46e5	1.78e5	2.96e5	inactive
Atg1 (GeneID 39454)	1	1.14e6	8.77e5	1.63e6	1.71e6	inactive
Atg1 (GeneID 39454)	2	2.90e5	2.91e5	2.17e6	1.64e6	inactive
Atg1 (GeneID 39454)	3					inactive
mnd (GeneID 39625)	1	1.48e5	1.93e5	1.65e6	1.34e6	inactive
GstD5 (GeneID 48338)	1	1.20e5	1.57e5	2.17e6	2.60e6	inactive
GstD5 (GeneID 48338)	2	7.53e5	4.33e5	4.64e5	6.03e5	inactive
Cyp4s3 (GeneID 32444)	1	4.10e5	4.53e5	3.69e6	3.96e6	inactive
Cyp4s3 (GeneID 32444)	2	5.72e5	6.40e5	1.44e6	1.27e6	inactive
Cyp4s3 (GeneID 32444)	3	4.90e5	3.06e5	6.31e5	5.05e5	inactive
Hsepi (GeneID 35569)	1	3.81e5	3.67e5	2.38e6	2.30e6	inactive
Hsepi (GeneID 35569)	2	3.07e5	3.46e5	6.24e5	6.82e5	inactive
CG9922 (GeneID 41708)	1	2.21e5	2.51e5	3.41e6	3.46e6	inactive
CG9922 (GeneID 41708)	2	5.57e5	4.36e5	1.56e6	1.36e6	inactive
RpL31 (GeneID 35988)	1	2.17e5	1.50e5	1.69e6	1.39e6	inactive
RpL31 (GeneID 35988)	2	3.01e5	3.11e5	5.99e5	5.99e5	inactive
CG14423 (GeneID 31287)	1	3.35e5	3.26e5	1.98e6	1.66e6	inactive
CG14423 (GeneID 31287)	2	7.56e5	8.15e5	8.99e5	7.93e5	inactive
Shrm (GeneID 36592)	1	55026	90624	1.06e6	1.06e6	inactive
Shrm (GeneID 36592)	2	1.48e6	1.69e6	2.93e6	2.61e6	inactive
Shrm (GeneID 36592)	3	6.31e5	6.80e5	1.67e6	1.54e6	inactive
Shrm (GeneID 36592)	4	9.18e5	9.67e5	8.97e5	9.06e5	inactive
Shrm (GeneID 36592)	5	2.88e5	2.94e5	4.32e5	6.77e5	inactive
Naa20A (GeneID 32962)	1	43954	70718	4.27e5	4.64e5	inactive

Individual results from the list.
Result of mnd (GeneID 39625) in “Renilla control light, replicate 2”: 1.34e6
Result for Atg1 (GeneID 39454) #2 under “Renilla control light, replicate 1”: 2.17e6
For “activity call”, Atg1 (GeneID 39454) #3 shows inactive
